From doi:10.1101/2023.12.22.572193

Molecular target: PfCoronin^WT-smHA (P. falciparum (Pikine isolate, SenP019.04)) (UniProt Q8I4S2)
Experiment: affinity purification with mass spectrometry

With “eukaryotic translation initiation factor 3 subunit B (from UniProt Q8I3T1)” the binding was “binds”.

Results are given in words; binding and its absence hold for the method and conditions named. Binding seen in cells or lysates may run through a third protein. Here binding means that the protein was enriched with, or labelled near, the bait; the list need not be complete.
